Source: PMC11170894
Numbering of substitutions follows the chain as printed. In names and notes the source's numbering stands. These are yes or no findings as the source states them, for the method shown. For part of these data: Binding seen in cells or lysates may run through a third protein. Some entries that bind do so weakly or less than the wild type. Sequences can lack the tags named with a protein.

How the values were obtained:
[1] = molecular target: T1, Flag-TBK1 E232Q mutant (human) (UniProt Q9UHD2); experiment: co-IP; Flag-TBK1 (wild-type or mutant) and mCherry-OPTN co-transfected in HEK293T for 48 h; lysis buffer 20 mM Tris-HCl, 150 mM NaCl, 5 mM MgCl2, 1% Triton X-100; lysate mixed with anti-DDDDK antibody-coupled magnetic beads for 30 min; blots with anti-DDDDK-tag and anti-RFP antibodies
T1 sequence: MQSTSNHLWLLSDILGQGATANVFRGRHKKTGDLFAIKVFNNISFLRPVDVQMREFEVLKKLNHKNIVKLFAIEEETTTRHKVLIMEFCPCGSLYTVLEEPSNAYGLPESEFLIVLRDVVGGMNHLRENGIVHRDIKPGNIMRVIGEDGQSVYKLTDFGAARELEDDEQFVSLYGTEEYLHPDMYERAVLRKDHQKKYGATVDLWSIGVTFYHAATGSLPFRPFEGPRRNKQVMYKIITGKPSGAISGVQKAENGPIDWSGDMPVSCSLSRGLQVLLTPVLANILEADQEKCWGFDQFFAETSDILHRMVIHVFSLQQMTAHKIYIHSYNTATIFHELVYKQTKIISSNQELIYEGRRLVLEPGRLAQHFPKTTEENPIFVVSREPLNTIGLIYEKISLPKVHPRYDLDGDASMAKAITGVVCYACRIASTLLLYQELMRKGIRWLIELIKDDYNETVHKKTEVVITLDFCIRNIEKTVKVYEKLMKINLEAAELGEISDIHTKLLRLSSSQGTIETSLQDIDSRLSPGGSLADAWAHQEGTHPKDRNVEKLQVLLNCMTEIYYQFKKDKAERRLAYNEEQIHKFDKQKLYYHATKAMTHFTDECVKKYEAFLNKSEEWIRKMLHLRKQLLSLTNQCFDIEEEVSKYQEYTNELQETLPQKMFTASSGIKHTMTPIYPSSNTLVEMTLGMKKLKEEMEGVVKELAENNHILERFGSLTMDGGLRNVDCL

[2] = molecular target: T2, Flag-TBK1 E696G mutant (human) (UniProt Q9UHD2); experiment: as above
T2 sequence: T1 sequence with Q232E, E696G

[3] = molecular target: T3, Flag-TBK1 I37T mutant (human) (UniProt Q9UHD2); experiment: as above
T3 sequence: T1 sequence with I37T, Q232E

[4] = molecular target: T4, Flag-TBK1 wild-type (human) (UniProt Q9UHD2); experiment: as above
T4 sequence: T1 sequence with Q232E

[5] = molecular target: T5, Flag-TBK1 wild-type (human), Q9UHD2; experiment: non-reducing SDS-PAGE; TBK1 dimerization examined by non-reducing SDS-PAGE and immunoblot of lysates of HEK293T cells expressing Flag-TBK1 wild-type or mutants; conditions: remark: other sources report otherwise
T5 chain: T1 sequence with Q232E

[6] = molecular target: T3, Flag-TBK1 I37T mutant (human); experiment: as above
[7] = molecular target: Flag-TBK1 T77I variant (human) (UniProt Q9UHD2); experiment: as above
[8] = molecular target: T1, Flag-TBK1 E232Q mutant (human); experiment: as above
[9] = molecular target: T2, Flag-TBK1 E696G mutant (human); experiment: as above

With “mCherry-OPTN wild-type (from UniProt Q96CV9-1 1-577)” the binding [1] was “binds”, the binding [2] was “binds” and the binding [3] was “binds”. The binding [4] was “binds”.

B1: Flag-TBK1 wild-type, Q9UHD2 1-729 (enzyme)
chain: T1 sequence with Q232E
With B1 the binding [5] was “binds”.

B2: Flag-TBK1 I37T mutant (enzyme, UniProt Q9UHD2 1-729)
chain: T1 sequence with I37T, Q232E
In the case of B2, the binding [6] is reported as “binds”.

B3: Flag-TBK1 T77I variant (enzyme, UniProt Q9UHD2 1-729)
chain: T1 sequence with T77I, Q232E
In the case of B3, the binding [7] is reported as “binds”.

B4: Flag-TBK1 E232Q mutant (enzyme, UniProt Q9UHD2 1-729)
chain: T1 sequence
In the case of B4, the binding [8] is reported as “binds”.

B5: Flag-TBK1 E696G mutant (enzyme, UniProt Q9UHD2 1-729)
chain: T1 sequence with Q232E, E696G
For B5, the binding [9] was “binds”.
